Measurements: paper PMC5348399
No constants are given. Whether binding was seen depends on the method and setting. In cells and extracts the contact can be indirect. Binding calls can cover weak binding; strength is not graded here. Where a sequence is shown, tags or fusion partners need not be part of it.

Molecular target: T1, GST-PC-1 (human) (UniProt P55327)
T1 sequence: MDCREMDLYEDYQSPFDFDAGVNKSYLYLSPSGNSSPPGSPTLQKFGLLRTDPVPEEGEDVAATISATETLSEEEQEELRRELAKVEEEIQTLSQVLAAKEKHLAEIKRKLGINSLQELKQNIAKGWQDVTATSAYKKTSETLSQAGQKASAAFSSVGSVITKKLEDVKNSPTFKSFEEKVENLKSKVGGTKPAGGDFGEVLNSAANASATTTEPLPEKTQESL
Assay: pull-down; GST-PC-1 or GST-CHIP on glutathione beads incubated with lysates of transfected HEK293 cells at 4°C for 4-6 h, Western blot; AR with GST-CHIP tested with and without co-expressed HA-PC-1; only the target purified

binding: binds
Substance: Myc-AR-484-651 (human) (domain or fragment)
